Earlier results in patent publication US20020045664A1, “Estrogen mimetics lacking reproductive tract effects” (The University of Georgia Research Foundation, Inc, priority 1999, published 2002).

Tested on: MCF-7 cells
Details: concentration at which growth stimulation was 50% maximal; read-out: MCF-7 Cell Growth EC50; cited from earlier work

SMILES	EC50 [nM]
CC/C(=C(/c1ccccc1)c1ccc(OCCN(C)C)cc1)c1ccccc1 [cis-tamoxifen]	11
CC/C(=C(\c1ccccc1)c1ccc(OCCN(C)C)cc1)c1ccccc1 [trans-tamoxifen, (Z)-2-[4-(1,2-diphenyl-1-butenyl)phenoxy]-N,N-dimethylethanamine]	0.11
